## Screening data, single-dose tests

By UniProt entry, the sequences of proteins in these tests, tags left out. Residues count along the entry.
UniProt P9WNZ1, whole entry: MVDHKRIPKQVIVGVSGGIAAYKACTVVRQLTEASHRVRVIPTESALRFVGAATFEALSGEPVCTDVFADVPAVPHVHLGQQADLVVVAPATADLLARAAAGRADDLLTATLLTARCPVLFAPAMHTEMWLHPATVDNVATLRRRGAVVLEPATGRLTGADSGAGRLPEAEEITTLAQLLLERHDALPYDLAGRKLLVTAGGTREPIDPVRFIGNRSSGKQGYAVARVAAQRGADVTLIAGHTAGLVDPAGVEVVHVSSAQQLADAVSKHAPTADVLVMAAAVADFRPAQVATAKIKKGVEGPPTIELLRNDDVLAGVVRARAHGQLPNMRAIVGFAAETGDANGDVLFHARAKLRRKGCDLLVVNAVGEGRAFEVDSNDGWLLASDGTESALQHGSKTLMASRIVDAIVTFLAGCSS
UniProt A4I591, 1-473: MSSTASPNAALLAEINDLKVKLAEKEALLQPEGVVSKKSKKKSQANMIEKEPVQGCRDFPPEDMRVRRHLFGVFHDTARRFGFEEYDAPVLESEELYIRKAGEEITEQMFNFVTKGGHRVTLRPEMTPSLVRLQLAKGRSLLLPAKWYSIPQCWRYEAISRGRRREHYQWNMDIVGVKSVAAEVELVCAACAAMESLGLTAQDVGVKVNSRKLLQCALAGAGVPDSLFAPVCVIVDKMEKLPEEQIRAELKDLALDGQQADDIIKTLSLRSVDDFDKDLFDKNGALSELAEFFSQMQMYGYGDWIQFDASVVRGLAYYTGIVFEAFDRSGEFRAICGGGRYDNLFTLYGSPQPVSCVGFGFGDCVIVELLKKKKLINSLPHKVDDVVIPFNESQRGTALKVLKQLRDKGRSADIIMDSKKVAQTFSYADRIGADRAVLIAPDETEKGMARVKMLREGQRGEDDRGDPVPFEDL

CoaBC: 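Coenzyme A biosynthesis protein CoaBC, Mycobacterium tuberculosis (UniProt P9WNZ1). Enzyme assay of CoaBC with a phosphate dye (Biomol Green) read at 650 nm. Compounds at 30 µM. Higher reads as stronger inhibition, judged from the few compounds that gave an IC50. Most strong results did not repeat in a second test. Size under these conditions: about 67,000 compounds, about 40 of them at 50% or above in at least one test.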
LiHisRS: 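Enzyme assay of histidyl-tRNA synthetase; the read-out is not stated. Target: Histidine-tRNA ligase, Leishmania infantum (UniProt A4I591). Compounds at 30 µM. The record gives no direction; compounds that gave an IC50 in retests scored well above the rest, so higher reads as stronger inhibition. The assay is labelled LdHisRS but filed under L. infantum. Size under these conditions: about 69,000 compounds, about 410 of them at 50% or above in at least one test.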
Leishmania in macrophages: 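Cell assay of Leishmania donovani living inside macrophages; the read-out is not stated. Concentration: 30 µM. Higher reads as stronger inhibition (inferred: compounds with an IC50 in retests scored well above the rest). Size under these conditions: about 69,000 compounds, about 1,000 of them at 50% or above in at least one test.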

Values are the deposited “Percent Effect”, in %. How 0% and 100% were set is not recorded. Most values in the screen are low, and negative values occur. This is an unselected part of the compounds tested. Two or more numbers in one place are separate tests of the same structure; such repeats can differ widely. A dash means the value is not listed here; it may have been measured.

| # | Compound | CoaBC | LiHisRS | Leishmania in macrophages |
|---|---|---|---|---|
| 1 | `CCc1ncc2c(n1)CN(c1cc(NC3CC3)nc(N)n1)C2` | 3.145 | 26.55 | 15.56 |
| 2 | `CC(C)N1CCOC(CC(=O)N2CCCN(Cc3ccncc3)CC2)C1` (centres undefined) | 3.21 | 8.392 | 11.52 |
| 3 | `Cc1nc(CN2C(=O)C[C@H]3[C@H]2CCN3CC2CCOC2)cs1` (some centres undefined) | 0.4847 | 9.574 | - |
| 4 | `Cc1nc(-c2noc3ccc(C(=O)NCCN4CCOCC4)cc23)co1` | 4.715 | 9.244 | -4.947 |
| 5 | `CCCc1nc(C(=O)N2CCN(C(=O)OC)CC2)cs1` | 2.317 | 21.98 | 10.08 |
| 6 | `CC(C)CN1CC2(CCN(C(=O)C(O)c3ccccc3Cl)CC2)CC1=O` (centres undefined) | 2.644 | 10.42 | -8.521 |
| 7 | `CC(C)(C)S(=O)(=O)CCNC(=O)c1ccc2ccccc2c1` | -4.907 | 9.735 | 25.47 |
| 8 | `O=C(O)C(F)(F)F.O=C(O)C(F)(F)F.O=C1NC2(CCN(Cc3ccoc3)CC2)CC1c1ccncc1` (centres undefined) | - | - | 14.91 |
| 9 | `Cc1ccc(C(=O)O)cc1S(=O)(=O)N(CC(C)O)c1ccccc1` (centres undefined) | - | 14.17 | 26.15 |
| 10 | `COc1ccccc1C(=O)N1CCNCC1C(N)=O` (centres undefined) | 1.84 | 14.49 | - |
| 11 | `CC(C)CN1C(=O)C2(CCN(Cc3nccs3)C2)c2ccccc21` (centres undefined) | 4.762 | 19.23 | - |
| 12 | `Cc1cc(NCc2cc3n(n2)CCCN(C(=O)C2CCC2)C3)ncn1` | 10.18 | 13.83 | -13.24 |
| 13 | `Cc1cccc(-n2cc(C(=O)N3CCCC(n4cccn4)C3)nn2)c1` (centres undefined) | 8.462 | 21.33 | 25.53 |
| 14 | `Cc1nc(N2CCC3(CCCN(C(C)C)C3=O)C2)c2sccc2n1` (centres undefined) | - | 17.5 | 23.09 |
| 15 | `CC(C)S(=O)(=O)NCc1cccnc1Oc1ccc(F)cc1F` | -8.025 | 3.226 | -6.838 |
| 16 | `Cn1cc(C(=O)NCc2cncc3c2CCNC3)cn1` | 1.361 | -9.901 | - |
| 17 | `COc1cccc(CNc2cc(C)nc(-c3ccncc3)n2)c1O` | 13.94 | 19.18 | 7.112 |
| 18 | `O=C(NCc1ccccc1Cn1ccnc1)N1CCOCC1` | 1.711 | 9.677 | 25.77 |
| 19 | `CN(C)C(=O)COCc1ncn2c1CN(c1ncc(F)cn1)CCC2` | -1.833 | -10.53 | 38.11 |
| 20 | `Cc1cc(CC(C)NC2CCSCC2)[nH]n1` (centres undefined) | 5.411 | 4.918 | 3.441 |
| 21 | `CC(=O)N1CCCCC1c1ncnn1-c1ccc2nc(C)sc2c1` (centres undefined) | 5.623 | 10.96 | 29.12 |
| 22 | `CC(C)NC(=O)c1cc(-c2ccc(S(C)(=O)=O)cc2)nc2c1cnn2C` | 2.895 | -2.759 | 1.323 |
| 23 | `CC1=Nc2c(c(O)nn2C(C)C)C(c2cnn(C)c2)S1` (centres undefined) | -10.53 | 19.31 | 14.28 |
| 24 | `CN(C)C(=O)c1nn(C)c2c1CN(Cc1cccs1)C2.O=C(O)C(F)(F)F.O=C(O)C(F)(F)F` | - | - | 19.89 |
| 25 | `Cc1cc(C)c2cc(CNCc3cccnc3)c3nn(C)c(=O)n3c2c1` | 1.453 | 16.49 | 11.47 & -1.922 |
| 26 | `[H][C@]12CC[C@]([H])(CN(S(C)(=O)=O)C1)N(Cc1cscn1)C2=O` | - | - | 17.05 |
| 27 | `COc1cccc2[nH]c(C(=O)N3CCNCC3C(N)=O)cc12.Cl` (centres undefined) | - | - | 13.41 |
| 28 | `O=C(NC1CCCc2c1[nH]c1ccc(F)cc21)c1n[nH]c2c1CCC2` (centres undefined) | 1.823 | 15.22 | 15.09 |
| 29 | `Cc1nc(C2CCCN(C(=O)c3ccc(N4CCCC4)nc3)C2)no1` (centres undefined) | 6.266 | 16.22 | -10.49 |
| 30 | `Cc1cccc(C(=O)N2C[C@@H](OCc3ccncc3)[C@@H]3OCCC[C@@H]32)n1` | 2.757 | 20.51 | - |
| 31 | `CCN1CCN(C)C(=O)C12CCN(C(=O)Cc1ccccn1)CC2.O=C(O)C(F)(F)F` | - | - | 12.75 |
| 32 | `CCS(=O)(=O)N1CCN(C(=O)NC(C)C)CC2(CC(=O)N(C)C2)C1` (centres undefined) | -4.277 | 2.632 | 15.87 |
| 33 | `Cc1nc(CCNCc2c(C)nn(C)c2N2CCOCC2)cs1` | 5.45 | 10.71 | 9.63 |
| 34 | `CCN(C)S(=O)(=O)c1ccc(Cl)cc1C#N` | -5.244 | 19.78 | 12.78 |
| 35 | `COc1cccc(Cl)c1C(C(=O)O)N1CCC(O)(c2cccnc2)CC1` (centres undefined) | 12.74 | 8.571 | -0.9458 |
| 36 | `c1ccc(-c2nc(CN3CCOC(Cn4cccn4)C3)co2)cc1` (centres undefined) | 9.068 | 8.772 | -7.481 |
| 37 | `COc1ccc(C(C)NC(=O)Cn2ccc(=O)n(C)c2=O)cc1F` (centres undefined) | -13.67 | 11.97 | 7.508 |
| 38 | `CC(C)[C@H](N)C(=O)N1CCSc2ccccc2C1` | 0.4959 | 20.41 | - |
| 39 | `COc1ccc(-c2cnc(CN3CCCC3CO)o2)cc1` (centres undefined) | 5.511 | 12.7 | -34.95 |
| 40 | `O=C(CC1CC1)N1CCCC2(CCC(=O)N2CC2CC2)CC1` (centres undefined) | -5.412 | -90.83 | 2.615 |

Some entries from above, unchanged:

{"compound": "[H][C@]12CC[C@]([H])(CN(S(C)(=O)=O)C1)N(Cc1cscn1)C2=O", "Leishmania in macrophages": 17.05}
{"compound": "O=C(NC1CCCc2c1[nH]c1ccc(F)cc21)c1n[nH]c2c1CCC2", "stereo": "centres undefined", "CoaBC": 1.823, "LiHisRS": 15.22, "Leishmania in macrophages": 15.09}
{"compound": "CC1=Nc2c(c(O)nn2C(C)C)C(c2cnn(C)c2)S1", "stereo": "centres undefined", "CoaBC": -10.53, "LiHisRS": 19.31, "Leishmania in macrophages": 14.28}

Source: ChEMBL document CHEMBL3988442, “University of Dundee, Small-Polar-MMV Screening Library” (2021).